One assay has as its target T1, HIRA-Flag (Drosophila) (UniProt O17468).
T1 sequence: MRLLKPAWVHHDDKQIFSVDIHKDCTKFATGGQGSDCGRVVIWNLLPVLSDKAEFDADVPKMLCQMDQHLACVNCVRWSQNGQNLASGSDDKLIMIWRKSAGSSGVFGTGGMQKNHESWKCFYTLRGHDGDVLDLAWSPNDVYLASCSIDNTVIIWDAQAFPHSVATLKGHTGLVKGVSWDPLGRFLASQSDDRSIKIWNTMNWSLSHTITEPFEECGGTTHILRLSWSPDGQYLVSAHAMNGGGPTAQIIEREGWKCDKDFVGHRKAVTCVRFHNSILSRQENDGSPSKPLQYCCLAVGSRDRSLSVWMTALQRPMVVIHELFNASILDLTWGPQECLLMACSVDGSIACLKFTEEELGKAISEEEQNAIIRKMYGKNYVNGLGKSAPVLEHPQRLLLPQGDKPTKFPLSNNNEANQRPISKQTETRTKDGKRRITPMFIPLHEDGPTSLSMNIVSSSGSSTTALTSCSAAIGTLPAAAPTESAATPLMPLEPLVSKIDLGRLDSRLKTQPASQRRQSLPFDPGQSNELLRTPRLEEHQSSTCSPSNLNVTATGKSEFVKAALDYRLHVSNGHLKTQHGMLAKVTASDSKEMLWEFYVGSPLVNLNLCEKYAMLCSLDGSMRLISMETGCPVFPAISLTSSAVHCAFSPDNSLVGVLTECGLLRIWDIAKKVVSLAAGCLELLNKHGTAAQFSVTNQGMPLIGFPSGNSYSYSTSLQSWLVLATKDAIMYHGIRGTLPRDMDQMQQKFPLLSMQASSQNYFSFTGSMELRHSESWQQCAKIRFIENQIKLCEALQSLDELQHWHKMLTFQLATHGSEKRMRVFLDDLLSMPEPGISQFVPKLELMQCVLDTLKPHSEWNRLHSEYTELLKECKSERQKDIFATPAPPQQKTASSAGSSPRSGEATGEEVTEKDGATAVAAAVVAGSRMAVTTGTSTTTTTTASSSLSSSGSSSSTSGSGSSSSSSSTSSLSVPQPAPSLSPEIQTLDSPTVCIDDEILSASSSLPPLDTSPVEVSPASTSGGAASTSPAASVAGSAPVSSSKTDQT
The experiment in a line: co-IP; ovary extracts of Hira-flag transgenic flies; IP with anti-YEM AS2 rabbit polyclonal or anti-Flag M2 monoclonal antibody on G-Sepharose beads; mock IP with rabbit pre-immune serum; Western blot of extract, flowthrough and IP fractions. (In general: In western blotting, separated proteins are transferred to a membrane and probed.)

The target in assay [1] is T2, Yemanuclein (Drosophila (endogenous in ovaries)) (UniProt P25992).
T2 sequence: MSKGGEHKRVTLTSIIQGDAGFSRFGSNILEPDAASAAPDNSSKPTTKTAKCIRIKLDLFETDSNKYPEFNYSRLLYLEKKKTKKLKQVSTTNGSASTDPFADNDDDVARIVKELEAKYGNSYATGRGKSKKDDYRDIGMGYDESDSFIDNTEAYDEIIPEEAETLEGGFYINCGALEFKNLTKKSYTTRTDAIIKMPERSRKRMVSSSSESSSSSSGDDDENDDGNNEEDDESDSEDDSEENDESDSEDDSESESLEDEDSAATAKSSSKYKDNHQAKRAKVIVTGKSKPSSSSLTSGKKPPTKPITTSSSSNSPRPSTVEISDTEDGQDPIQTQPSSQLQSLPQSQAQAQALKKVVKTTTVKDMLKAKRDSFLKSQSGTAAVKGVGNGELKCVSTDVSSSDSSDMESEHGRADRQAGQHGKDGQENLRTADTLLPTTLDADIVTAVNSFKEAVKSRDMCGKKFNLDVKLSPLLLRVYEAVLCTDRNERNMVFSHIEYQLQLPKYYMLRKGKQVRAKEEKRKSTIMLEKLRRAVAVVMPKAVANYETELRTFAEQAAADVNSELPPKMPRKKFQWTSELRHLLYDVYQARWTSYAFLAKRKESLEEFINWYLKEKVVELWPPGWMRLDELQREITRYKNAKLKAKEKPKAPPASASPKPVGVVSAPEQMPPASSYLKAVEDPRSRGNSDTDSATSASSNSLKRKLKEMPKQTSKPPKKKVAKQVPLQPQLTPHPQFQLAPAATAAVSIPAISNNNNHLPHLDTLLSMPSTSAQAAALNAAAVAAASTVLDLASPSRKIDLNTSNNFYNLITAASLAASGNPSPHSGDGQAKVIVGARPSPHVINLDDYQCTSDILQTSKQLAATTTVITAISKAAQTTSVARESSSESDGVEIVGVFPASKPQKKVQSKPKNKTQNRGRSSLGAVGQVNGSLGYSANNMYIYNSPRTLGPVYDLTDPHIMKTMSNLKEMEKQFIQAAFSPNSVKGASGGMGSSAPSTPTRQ
The description is as above.

Results are given in words; binding and its absence hold for the method and conditions named. In cells and extracts the contact can be indirect. Some binding calls cover weakened binding; strength is not graded here. Tags and fused reporters may be left off the sequences shown.

B1: Yemanuclein (protein, UniProt P25992 1-1002)
chain: T2 sequence
B1: the binding entry in the assay with HIRA-Flag (Drosophila) was “binds”.

B2: HIRA-Flag (protein, UniProt O17468 1-1047)
chain: T1 sequence
In the case of B2, the binding entry in assay [1] is recorded as “binds”.

These data come from article PMC3567178.
